# Results reported in the supplement of paper PMC8728848.
# The other results are listed elsewhere or left out.
# B1: B936 (Bifidobacterium sp) (protein)
# chain: MKNWKKAIALVASAAALVSVAACGPSNAGGSSDSGKKTVGFVAVGPEGGFRTANEKDIQKAFEDAGFDLTYSPTQNNDQQKQIQAFNKFVNDEVDAIILSSTEDSGWDDSLKKAAEAEIPVFTVDRNVDVKDAEAKKAIVAHIGPSNVWCGEQAAEFVNKNFPDGANGFILEGPAGLSVVKDRGTGWGNKVASNVKVLESQSANWSTDEAKTVTAGLLDKYKSDNPQFIFAQNDEMGLGAAQAVDAAGLKGKVKIITIDGTKNALQALVDGDLSYVIEYNPIFGKETAQAVKDYLDGKTVEKDIEIESKTFDAASAKEALDNNTRAY
# Assays:
# Test in all cases: glycan array binding signal (z-score within array); higher = stronger binding
# Conditions in all cases: glycan notation: IUPAC condensed, linker removed
# [1] = target: Gal(b1-4)GlcNAc(b1-2)Man(a1-6)[Man(a1-3)]Man(b1-4)GlcNAc(b1-4)GlcNAc
# Outline: (§1)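 The Consortium for Functional Glycomics database supplied 3228 glycan arrays, of which those lacking an available protein sequence were dropped. The binding signal, a within-array Z-score, was averaged across arrays of the same protein sequence and across linkers. Negative scores can be read as non-binding.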
# [2] = target: Gal(b1-4)GlcNAc(b1-2)[Gal(b1-4)GlcNAc(b1-4)]Man(a1-3)[Gal(b1-4)GlcNAc(b1-2)Man(a1-6)]Man(b1-4)GlcNAc(b1-4)GlcNAc
# Outline: as §1
# [3] = target: Gal(b1-4)GlcNAc(b1-2)[Gal(b1-4)GlcNAc(b1-4)]Man(a1-3)[Gal(b1-4)GlcNAc(b1-2)[Gal(b1-4)GlcNAc(b1-6)]Man(a1-6)]Man(b1-4)GlcNAc(b1-4)GlcNAc
# Outline: as §1
# [4] = target: Gal(b1-4)GlcNAc(b1-2)[Gal(b1-4)GlcNAc(b1-4)]Man(a1-3)[GlcNAc(b1-4)][Gal(b1-4)GlcNAc(b1-2)Man(a1-6)]Man(b1-4)GlcNAc(b1-4)GlcNAc
# Outline: as §1
# [5] = target: Gal(b1-4)GlcNAc(b1-2)[Gal(b1-4)GlcNAc(b1-4)]Man(a1-3)[GlcNAc(b1-4)][Gal(b1-4)GlcNAc(b1-2)[Gal(b1-4)GlcNAc(b1-6)]Man(a1-6)]Man(b1-4)GlcNAc(b1-4)GlcNAc
# Outline: as §1
# [6] = target: Gal(b1-4)GlcNAc(b1-2)[Gal(b1-4)GlcNAc(b1-6)]Man(a1-6)[Gal(b1-4)GlcNAc(b1-2)Man(a1-3)]Man(b1-4)GlcNAc(b1-4)GlcNAc
# Outline: as §1
# [7] = target: Gal(b1-4)GlcNAc(b1-2)[Gal(b1-4)GlcNAc(b1-6)]Man(a1-6)[Gal(b1-4)GlcNAc(b1-2)Man(a1-3)]Man(b1-4)GlcNAc(b1-4)[Fuc(a1-6)]GlcNAc
# Outline: as §1
# [8] = target: Gal(b1-4)GlcNAc(b1-2)[Gal(b1-4)GlcNAc(b1-6)]Man(a1-6)[GlcNAc(b1-4)][Gal(b1-4)GlcNAc(b1-2)Man(a1-3)]Man(b1-4)GlcNAc(b1-4)GlcNAc
# Outline: as §1
# [9] = target: Gal(b1-4)GlcNAc(b1-2)[Gal(b1-4)GlcNAc(b1-6)]Man(a1-6)[GlcNAc(b1-4)][Gal(b1-4)GlcNAc(b1-2)[Gal(b1-4)GlcNAc(b1-4)]Man(a1-3)]Man(b1-4)GlcNAc(b1-4)[Fuc(a1-6)]GlcNAc
# Outline: as §1
# [10] = target: Gal(b1-4)GlcNAc(b1-3)Gal(b1-3)GalNAc
# Outline: as §1
# [11] = target: Gal(b1-4)GlcNAc(b1-3)Gal(b1-3)GlcNAc
# Outline: as §1
# [12] = target: Gal(b1-4)GlcNAc(b1-3)Gal(b1-4)Glc
# Outline: as §1
# [13] = target: Gal(b1-4)GlcNAc(b1-3)Gal(b1-4)GlcNAc
# Outline: as §1
# [14] = target: Gal(b1-4)GlcNAc(b1-3)Gal(b1-4)GlcNAc(b1-2)Man(a1-3)[Gal(b1-4)GlcNAc(b1-3)Gal(b1-4)GlcNAc(b1-2)Man(a1-6)]Man(b1-4)GlcNAc(b1-4)GlcNAc
# Outline: as §1
# [15] = target: Gal(b1-4)GlcNAc(b1-3)Gal(b1-4)GlcNAc(b1-2)Man(a1-3)[Gal(b1-4)GlcNAc(b1-3)Gal(b1-4)GlcNAc(b1-2)Man(a1-6)]Man(b1-4)GlcNAc(b1-4)[Fuc(a1-6)]GlcNAc
# Outline: as §1
# [16] = target: Gal(b1-4)GlcNAc(b1-3)Gal(b1-4)GlcNAc(b1-2)[Gal(b1-4)GlcNAc(b1-3)Gal(b1-4)GlcNAc(b1-6)]Man(a1-6)[Gal(b1-4)GlcNAc(b1-3)Gal(b1-4)GlcNAc(b1-2)Man(a1-3)]Man(b1-4)GlcNAc(b1-4)GlcNAc
# Outline: as §1
# [17] = target: Gal(b1-4)GlcNAc(b1-3)Gal(b1-4)GlcNAc(b1-2)[Gal(b1-4)GlcNAc(b1-3)Gal(b1-4)GlcNAc(b1-6)]Man(a1-6)[Gal(b1-4)GlcNAc(b1-3)Gal(b1-4)GlcNAc(b1-2)Man(a1-3)]Man(b1-4)GlcNAc(b1-4)[Fuc(a1-6)]GlcNAc
# Outline: as §1
# [18] = target: Gal(b1-4)GlcNAc(b1-3)Gal(b1-4)GlcNAc(b1-3)Gal(b1-4)GlcNAc
# Outline: as §1
binder,measurement,setting,value
B1,glycan array binding signal (z-score),[1],0.233
same,glycan array binding signal (z-score),[2],-0.689
same,glycan array binding signal (z-score),[3],-0.107
same,glycan array binding signal (z-score),[4],-0.432
same,glycan array binding signal (z-score),[5],1.55
same,glycan array binding signal (z-score),[6],-0.292
same,glycan array binding signal (z-score),[7],0.232
same,glycan array binding signal (z-score),[8],-0.558
same,glycan array binding signal (z-score),[9],0.523
same,glycan array binding signal (z-score),[10],-0.352
same,glycan array binding signal (z-score),[11],-0.603
same,glycan array binding signal (z-score),[12],3.24
same,glycan array binding signal (z-score),[13],-0.345
same,glycan array binding signal (z-score),[14],1.56
same,glycan array binding signal (z-score),[15],0.379
same,glycan array binding signal (z-score),[16],0.512
same,glycan array binding signal (z-score),[17],0.864
same,glycan array binding signal (z-score),[18],-0.235

# Shown tab-delimited: entries from further up
binder	measurement	setting	value
B1	glycan array binding signal (z-score)	[2]	-0.689
same	glycan array binding signal (z-score)	[8]	-0.558
